Measured values published in paper PMC11470591.
These are yes or no findings as the source states them, for the method shown. Some results given as binding are weak or reduced against the parent protein; the word gives no strength.

By UniProt entry, the sequences of proteins in these tests, tags left out. Where a name states a change or a piece, a line headed by the entry shows the natural chain unless it says otherwise.
UniProt P10443: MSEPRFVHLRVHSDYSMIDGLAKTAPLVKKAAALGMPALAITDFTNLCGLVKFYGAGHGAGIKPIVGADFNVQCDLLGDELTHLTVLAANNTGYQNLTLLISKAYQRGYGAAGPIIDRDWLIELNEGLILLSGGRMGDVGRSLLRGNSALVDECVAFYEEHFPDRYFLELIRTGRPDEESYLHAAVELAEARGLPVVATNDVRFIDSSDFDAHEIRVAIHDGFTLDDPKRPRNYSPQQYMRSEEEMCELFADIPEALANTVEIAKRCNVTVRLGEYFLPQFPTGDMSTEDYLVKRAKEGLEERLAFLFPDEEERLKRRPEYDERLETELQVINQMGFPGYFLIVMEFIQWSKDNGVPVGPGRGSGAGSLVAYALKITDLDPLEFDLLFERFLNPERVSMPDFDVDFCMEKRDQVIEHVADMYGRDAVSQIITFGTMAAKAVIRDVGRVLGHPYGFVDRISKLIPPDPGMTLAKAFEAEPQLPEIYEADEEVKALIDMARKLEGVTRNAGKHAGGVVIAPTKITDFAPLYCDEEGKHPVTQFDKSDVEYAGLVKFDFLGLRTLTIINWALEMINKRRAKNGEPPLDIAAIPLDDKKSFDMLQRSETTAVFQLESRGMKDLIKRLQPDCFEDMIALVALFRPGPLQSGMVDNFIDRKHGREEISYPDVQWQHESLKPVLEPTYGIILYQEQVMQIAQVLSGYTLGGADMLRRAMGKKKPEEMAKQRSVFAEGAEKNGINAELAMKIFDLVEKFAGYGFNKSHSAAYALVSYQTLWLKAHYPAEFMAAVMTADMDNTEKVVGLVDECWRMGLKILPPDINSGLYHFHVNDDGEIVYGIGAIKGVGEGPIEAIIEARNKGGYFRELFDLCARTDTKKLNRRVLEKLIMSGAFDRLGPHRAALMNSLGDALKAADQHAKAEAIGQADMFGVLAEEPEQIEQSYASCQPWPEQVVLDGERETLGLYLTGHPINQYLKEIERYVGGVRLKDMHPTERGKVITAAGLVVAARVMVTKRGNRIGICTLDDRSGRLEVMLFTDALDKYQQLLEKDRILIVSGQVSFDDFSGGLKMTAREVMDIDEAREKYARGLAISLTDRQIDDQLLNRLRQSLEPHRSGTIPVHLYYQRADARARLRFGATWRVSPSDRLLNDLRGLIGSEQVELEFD
UniProt P06710: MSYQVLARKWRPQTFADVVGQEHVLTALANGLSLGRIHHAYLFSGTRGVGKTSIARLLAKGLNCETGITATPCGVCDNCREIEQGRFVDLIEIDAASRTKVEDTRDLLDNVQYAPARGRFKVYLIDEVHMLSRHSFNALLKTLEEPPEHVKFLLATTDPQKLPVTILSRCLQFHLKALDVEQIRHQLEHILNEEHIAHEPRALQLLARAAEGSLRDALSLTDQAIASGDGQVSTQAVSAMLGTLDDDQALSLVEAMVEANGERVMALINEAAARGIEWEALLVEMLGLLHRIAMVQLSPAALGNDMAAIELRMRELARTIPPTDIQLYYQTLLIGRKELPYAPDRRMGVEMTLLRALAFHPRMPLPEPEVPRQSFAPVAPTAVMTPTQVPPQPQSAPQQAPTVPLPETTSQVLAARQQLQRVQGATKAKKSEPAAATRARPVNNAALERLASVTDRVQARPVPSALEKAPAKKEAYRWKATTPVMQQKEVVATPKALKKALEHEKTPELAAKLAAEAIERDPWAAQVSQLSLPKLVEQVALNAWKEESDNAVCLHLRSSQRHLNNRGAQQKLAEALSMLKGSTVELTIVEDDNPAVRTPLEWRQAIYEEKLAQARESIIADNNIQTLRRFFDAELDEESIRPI

These substances were tested against His-tagged α subunit of Pol III (E. coli) (UniProt P10443) (assay: pull-down; His-tagged Pol α held on Ni-NTA resin, 1:1 ratio of His-tagged Pol α to τ3-CLC, 4 °C for 30 min, 20 mM sodium phosphate, 0.125 M NaCl, 25 mM imidazole, 1 mM ATP, pH 7.4; 13 washes; elution with 500 mM imidazole; stained SDS gel, band intensity ratio of τ (or γ) to α as fractional saturation; both purified).

| binding | Substance |
| --- | --- |
| binds | τ3(S617P)-CLC (from UniProt P06710 1-643; P28630 1-343; P28631 1-334; P28632 1-137; P28905 1-147) (complex) |
| no binding | τ3(I618X)-CLC (from UniProt P06710 1-617; P28630 1-343; P28631 1-334; P28632 1-137; P28905 1-147) (complex) |
| binds | WT τ3-CLC (τ3δδ'ψχ clamp loader complex) (from UniProt P06710 1-643; P28630 1-343; P28631 1-334; P28632 1-137; P28905 1-147) |
| binds | τ3(L635P/D636G)-CLC (from UniProt P06710 1-643; P28630 1-343; P28631 1-334; P28632 1-137; P28905 1-147) (complex) |
